Where no end group is shown, it is not given here.
experiment: peptide synthesis; settings: oxidative folding step, one disulfide bridge, sequence written open

| Substance | oxidative folding yield [%] |
| --- | --- |
| Ala-Gly-Cys-Lys-Asn-Phe-Phe-Trp-Lys-Thr-Phe-Thr-Ser-Cys (reducedsomatostatin) | 99 |

experiment: peptide synthesis; settings: oxidative folding step, single step dithiol to disulfide

| Substance | oxidative folding yield [%] |
| --- | --- |
| Ac-CPFAAC-NH2 (cysteine pairing not given here) | 100 |
| Ac-KPTCPFCRKT-NH2 (cysteine pairing not given here) | 100 |
| Ac-PTCPFCRK-NH2 (cysteine pairing not given here) | 100 |
| Ac-TCPFCR-NH2 (cysteine pairing not given here) | 100 |
| Ac-TDITCGYCHKLH-NH2 (cysteine pairing not given here) | 100 |
| CFGSRIDRIGAQSGMGCGRF (cysteine pairing not given here) | 100 |
| HSC(Me)2CH2CO-Tyr(Me)-Phe-Gln-Asn-Cys-Pro-Arg-Gly-NH2 | 97 |
| RPCPQCFYPLM-NH2 (cysteine pairing not given here) | 99 |

same assay, conditions: oxidative folding step, single step dithiol to disulfide, one disulfide bridge, sequence written open

| Substance | oxidative folding yield [%] |
| --- | --- |
| Ac-Cys-Gly-Pro-Cys-NH2 | 100 |
| Ac-Cys-Pro-Phe-Cys-NH2 | 97 |
| Cys-Tyr-Ile-Gln-Asn-Cys-Pro-Leu-Gly-NH2 (reducedoxytocin) | 98 |
| Cys-Tyr-Phe-Gln-Asn-Cys (reducedpressinoicacid) | 100 |
| Cys-Tyr-Phe-Gln-Asn-Cys-Pro-Arg-Gly-NH2 (reducedarginine-vasopressin) | 100 |
